T. brucei: 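Whole-parasite assay of Trypanosoma brucei over 72 hours; the read-out is not stated. Compounds at 30 µM. Higher reads as stronger inhibition (inferred: compounds with an IC50 in retests scored well above the rest). Values scatter widely below zero; nearly all retest evidence comes from the higher of the two concentrations used. About 64,000 compounds were tested under these conditions; 1.5% (about 940) showed 50% or more at least once.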
Leishmania in macrophages: 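Cell assay of Leishmania donovani living inside macrophages; the read-out is not stated. Concentration: 30 µM. Higher reads as stronger inhibition (inferred: compounds with an IC50 in retests scored well above the rest). About 69,000 compounds were tested under these conditions; 1.5% (about 1,000) showed 50% or more at least once.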
Toxoplasma: 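Assay of Toxoplasma gondii numbers, read through their beta-galactosidase reporter with a colour substrate. Concentration: 10 µM. The record gives no direction; the compounds picked for IC50 retests had high values, so higher reads as fewer parasites. Of about 67,000 compounds tested this way, about 260 (0.38%) reached 50% or more in at least one test.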

The filed quantity is “Percent Effect” (%). How 0% and 100% were set is not recorded. Most values in the screen are low, and negative values occur. Compounds were drawn at random from those tested, without regard to their results. Two or more numbers in one place are separate tests of the same structure; such repeats can differ widely. A dash means the value is not listed here; it may have been measured.

Compound,T. brucei,Leishmania in macrophages,Toxoplasma
Cc1cc(CN(CC(N)=O)CC(C)C)no1,-68.25,34.93,-0.1307
Cc1nnc(N2CCOC(C)C2)c(C#N)c1C (stereo not shown),6.625,21.28,-11.87
N#Cc1ccc(N2CCC3(CC2)COCCN3Cc2cccnc2)cc1.O=C(O)C(F)(F)F,-37.6,-0.3912,0.7012
COc1cc(CC(O)CC#N)c(OC)c2c1OCO2 (stereo not shown),-20.04,13.37,-17.35
CC(c1nnc(-c2ccccc2)o1)N1CCc2cncnc2C1 (stereo not shown),11.66,8.611,-0.4284
Cc1nnc(C2CCN(C(=O)c3ccsc3)CC2)s1,-17.73,-4.075,-9.047
Cc1ccc(S(=O)(=O)Nc2c(C)nn(C)c2C)cc1C,-5.41,13.36,12.99
CN(C)c1nccc(-c2cnc(N(C)C)[nH]c2=O)n1,-8.763,43.26 and 21.03,1.996
NCCO[C@H]1C[C@@H](O)C12CCN(C1Cc3ccccc3C1)CC2,-24.75,2.213,4.157
CCN(CC)c1nc(C)cc(C(=O)Nc2ccc(Br)cc2)n1,-34.57,-6.205,15.62
CC(NC(=O)c1cc2n(n1)CCCN(C)C2)c1cn2ccsc2n1 (stereo not shown),-13,-6.063,3.229
O=c1[nH]c(CCN2CCCC2Cn2cccn2)nc2ccccc12 (stereo not shown),6.361,-54.42,-5.076
CCC(=O)N1CCCC1c1csc(Nc2cnccn2)n1 (stereo not shown),65.49,3.523 and 0.7611,-4.797
CC(C)c1noc(CCNC(=O)NCC2Cc3ccccc3O2)n1 (stereo not shown),-33.86,-9.19,11.62
Cc1cn2nc(N3CCCC3Cn3cccn3)sc2n1 (stereo not shown),-,30.67,0.03339
CC(NCC1CCN(CCO)CC1)c1ccc(C(F)(F)F)cc1 (stereo not shown),-10.05,77.37,24.51
O=C1CCNc2ncc(-c3ccccc3Cl)cc2CN1C1CC1,10.61,-18.88,1.448
CC1(c2nccs2)CCN(C(=O)CC2CCOCC2)CC1,11.74,2.295,4.965
[H][C@]12CCCC(N(C)Cc3ccccn3)[C@@]1([H])CN(c1ncc(CC)cn1)C2 (stereo partly shown),-29.89,27.88,-1.757
Cc1nsc(NC(=O)N2CCN(Cc3ccccc3F)C(=O)C2)n1,-2.212,-20.14,2.474
Cc1ccc(N2CCCN(C(=O)C(C(C)C)n3cncn3)CC2)nn1 (stereo not shown),22.27,22.37,4.2
Cc1cnn(CC2CCCN2C(=O)CCc2ccncc2)c1 (stereo not shown),-,14.46,5.913
O=C(Nc1cnc(Oc2ccccc2F)nc1)C1CC1,4.901,12.44,14.03
CCn1cc(CNC(C)c2noc(-c3ccc(Cl)cc3)n2)cn1 (stereo not shown),15.85,7.05,-0.06313
O=C(O)C(F)(F)F.[H][C@]12CCCN(Cc3nccs3)[C@@]1([H])CN(S(C)(=O)=O)C2,-61.51,32.02 and 10.9,4.85
Cc1nnc2n1CCN(CCS(=O)(=O)c1ccc(Cl)cc1)C2,-20.85,-45.76,-41.9
CCCNC(=O)C[S+]([O-])Cc1csc(C2CCCCC2)n1 (stereo not shown),-,18.14,1.871
Nc1nc2c(c(N3CCSCC3)n1)CCN(Cc1ccccn1)CC2,7.669,27.87,-6.036
O=C(O)C(F)(F)F.[H][C@@]12CN(CC(C)C)C[C@]1([H])C(=O)N(C)C21CCN(C(=O)C(C)C)CC1,-1.978,15.76,-20.09
CSc1nc2ccsc2c(=O)n1CC(=O)NC1CCCC1,-13.63,20.64,5.725
COCCC(=O)N1CCN(CCN(C)C)c2ncccc2C1,-21.08,10.18,1.861
CCOc1ccc(CNC(C)c2ccc3[nH]c(=O)[nH]c3c2)cc1 (stereo not shown),11.05,0.5565,-17.17
CCc1nc(C)c([C@H]2CN(C)C[C@@H]2C(=O)NCc2ccccc2OC)[nH]1,-7.135,-11.78,8.116
Cn1c(CN2CCCCC2)nnc1C1CCCN(c2ccncc2F)C1 (stereo not shown),0.8225,22.79,-5.577
CC(O)CN1CCN(C(=O)c2cccc3[nH]ncc23)CC1 (stereo not shown),-31.5,3.191,1.684
CC(c1ccc(S(N)(=O)=O)cc1)N(C)C(=O)c1ccccc1I (stereo not shown),-46.33,21.27,3.121
CCNc1cc2c(nn1)CCN(C(=O)c1ccc(CNC(C)=O)o1)C2,-2.534,-18.56,-2.451
CCCN(Cc1ccccc1O)S(=O)(=O)C(C)CC (stereo not shown),101.6,6.072,-10.61
COc1ncccc1C(=O)N1CC(c2nc(-c3ccco3)no2)C1,-27.54,-14.29,-0.07471
COc1c(CNC2CCN(c3ccccn3)CC2)c(C(C)C)nn1C,-20.33,29.71,-5.797
COC(=O)N1CCCC(C(=O)Nc2ccccc2CN2CCCC2)C1 (stereo not shown),-54.1,6.33,9.096
O=C(Nc1nc2c(s1)CN(S(=O)(=O)C1CC1)CC2)Nc1ccccc1F,-6.517,-38.99 and 6.652,-1.187
Cc1ccc(-c2nnc(CN3CCNC(=O)C3)o2)cc1,-16.13,17.49,11.51
COc1ccc(Nc2nc3c(C)nn(C)c3c(=O)n2C)c(C)c1,-,-43.25,13.5
CCOc1ccc(Cl)c(C(=O)NCCC(=O)Nc2ccccn2)n1,6.923,20.3,-13.54
COc1ccc(CNCC2CN(C3CC3)CCO2)cc1OC (stereo not shown),9.019,13.02,1.752
O=C(CCc1ccccc1)NCC1CCN(Cc2ccsc2)CC1,-11.35,9.869,-5.322
CCn1c(N)nc2cc(C(=O)N3CCN(c4ccncc4)CC3)cnc21,-14.15,7.001,16.74
CO[C@H]1CCN(c2ccc(C)nn2)[C@H]1Cc1cnn(C)c1,12.56,45.17,-1.496
COCC(C)NC(=O)CN1CCC(C)CC1 (stereo not shown),-20.42,18.77,-9.832
CSCCC(O)C(=O)N1CCC(OCc2cccnc2)CC1 (stereo not shown),-9.436,-15.88,4.053
COCCCNC(=O)CN(C)C1CCCN(c2cccnn2)C1 (stereo not shown),-12.54,35.88,-1.983

Measurements from “University of Dundee, Small-Polar-MMV Screening Library” (2021), ChEMBL document CHEMBL3988442.